Assay results: patent US7083655B2, “Hair dye composition” (Kao Corporation, priority 2002, dated 2006)

Assays:
[1] = Dyeing performance, General Formulation A (alkaline peroxide), on goat hair; details: undamaged white goat hair; for Colour / L / a / b / Colour of Dyed Hair: General Formulation A
[2] = Wash fade (resistance to shampoo washing, 20 washes); details: General Formulation A, 15 mins at 50° C., damaged (permed) white goat hair; 20 shampoo washes, 40 C water rinse
[3] = Table 2a, comparison with anionic dyes, 15 mins at 50° C.
[4] = Table 1a, pH 10, 50° C. for 15 min
[5] = Table 1a, pH 10, 50° C. for 15 min, Minolta
[6] = Table 1a, before vs after colouring

Row | Structure (SMILES) | Colour of Dyed Hair [1, 4] | L [1, 5] | a [1, 5] | b [1, 5] | Delta E [1, 6] | other results
1 | N#CC1=NN(c2ccccc2)C(=O)C1/N=N/c1ccc(C(=O)O)cc1 (stereo not drawn) [A*, reference compound] | – | – | – | – | – | Delta E ([1]; Table 2a, colour uptake): 42; Colour [1, 3]: Pale Yellow; L [1, 3]: 86; a [1, 3]: −6; b [1, 3]: 41
2 | N#CC1=NN(c2ccccc2)C(=O)C1/N=N/c1ccc(S(=O)(=O)[O-])cc1.[Na+] (stereo not drawn) [B*, reference compound] | – | – | – | – | – | Delta E ([1]; Table 2a, colour uptake): 43; Colour [1, 3]: Pale Yellow; L [1, 3]: 85; a [1, 3]: −5; b [1, 3]: 42
3 | CS(=O)(=O)c1cc([N+](=O)[O-])ccc1/N=N/c1ccc(O)c2cccc(S(=O)(=O)O)c12 [C*, reference compound] | – | – | – | – | – | Colour ([1]; Table 3a): Pale Cyan; L ([1]; Table 3a): 65; a ([1]; Table 3a): −13; b ([1]; Table 3a): 2; Delta E ([1]; Table 3a, colour uptake): 23
4 | CC(=O)Nc1cc(/N=N/c2nncs2)ccc1O [Dye D-29] | Bright Intense Red | 46 | 63 | 23 | 73 | –
5 | CCSc1nsc(/N=N/c2cc(Cl)c(O)c(NC(=O)CC)c2)n1 [Dye D-30] | Intense Magenta | 50 | 47 | −19 | 67 | –
6 | Cc1cc(/N=N/c2snc(C)c2C#N)ccc1O [Dye D-37] | Dark Intense Magenta | 29 | 50 | −4 | 76 | Delta E fade from 20 Washes [2]: 4
7 | CCSc1nsc(/N=N/c2cc(Cl)c(O)cc2Cl)n1 [Dye D-38] | Intense Red/Magenta | 44 | 57 | 6 | 70 | –
8 | COc1cc(/N=N/c2snc(C)c2C#N)ccc1O [Dye D-39] | Bright Violet | 29 | 48 | −25 | 83 | –
9 | Cc1nsc(/N=N/c2ccc(O)c(Cl)c2)c1C#N [Dye D-41] | Intense Magenta | 35 | 57 | −9 | 79 | Delta E fade from 20 Washes [2]: 2
10 | Cc1nsc(/N=N/c2cc(F)c(O)c(F)c2)c1C#N [Dye D-43] | Intense Magenta | 49 | 50 | −8 | 65 | –
11 | CC(=O)Nc1cc(/N=N/c2nncs2)c(NC(C)=O)cc1O [Dye D-46] | Bright Pink Red | 57 | 53 | 6 | 60 | –
12 | Oc1c(Cl)cc(/N=N/c2nncs2)cc1Cl [Dye D-56] | Bright Intense Orange | 64 | 43 | 35 | 51 | –
13 | CCSc1nsc(/N=N/c2c(C(C)(C)C)nn3nc(C(C)C)[nH]c23)n1 [Dye D-78] | Intense Yellow | 77 | 14 | 76 | 64 | –
14 | CCSc1nnc(/N=N/c2c(-c3ccccc3Cl)nn3nc(C(C)C)[nH]c23)s1 [Dye D-79] | Intense Gold | 77 | 12 | 74 | 61 | –
15 | CCOC(=O)c1ccc(N2C(=O)C(C#N)=C(C)C(/N=N/c3nncs3)C2=O)cc1 [Dye D-80] | Intense Yellow | 79 | 11 | 57 | 45 | –
16 | CCc1nn2c(-c3ccc(OC)c(NS(C)(=O)=O)c3)n[nH]c2c1/N=N/c1nc(C(C)C)no1 [Dye D-81] | Intense Yellow | 84 | −4 | 60 | 46 | –
17 | N#CC1=NN(c2ccccc2)C(=O)C1/N=N/c1nncs1 [Dye D-82] | Intense Yellow | 77 | 7 | 76 | 63 | Delta E ([1]; Table 2a, colour uptake): 63; Colour [1, 3]: Very Intense Yellow; L [1, 3]: 77; a [1, 3]: 7; b [1, 3]: 76
18 | N#CC(/N=N/c1nc(-c2ccccc2)ns1)C(=O)c1ccco1 [Dye D-83] | Intense Yellow-Orange | 80 | 0 | 79 | 66 | –
19 | CCSc1nnc(/N=N/c2c(C(C)(C)C)nn3nc(C(C)C)[nH]c23)s1 [Dye D-84] | Very Intense Yellow | 79 | 8 | 84 | 71 | –
20 | CO/C=N/c1cc(/N=N/c2snc3ccc(S(C)(=O)=O)cc23)cc(NC(=O)C(C)C)c1O [Dye D-85] | Intense Cyan | 47 | 26 | −33 | 66 | –
21 | CC(C)C(=O)Nc1cc(/N=N/c2snc3ccc(S(C)(=O)=O)cc23)ccc1O [Dye D-87] | Intense Blue | 47 | −5 | −24 | 55 | –
22 | CC(C)(C)c1cc(/N=N/c2nc(-c3cccc(NS(C)(=O)=O)c3)ns2)cc(NC(=O)c2cccc(NS(C)(=O)=O)c2)c1O [Dye D-89] | Bright Pink/Magenta | 53 | 44 | −16 | 63 | –
23 | CSc1nnc(/N=N/c2ccc(O)c(NC(C)=O)c2)s1 [Dye D-91] | Bight Magenta | 38 | 61 | 3 | 77 | –
24 | CC(=O)Nc1cc(/N=N/c2nc3ccccc3s2)ccc1O [Dye D-94] | Dark Magenta | 30 | 51 | −1 | 75 | –
25 | Oc1ccc(/N=N/c2nc3ccccc3s2)cc1Cl [Dye D-95] | Bright Red | 51 | 52 | 14 | 62 | –
26 | CCSc1nnc(/N=N/c2c(C(C)(C)C)nn3nc(C)[nH]c23)s1 [Dye D-96] | Bright Yellow | 78 | 11 | 88 | 75 | –
27 | CCSc1nnc(/N=N/c2ccc(O)c3cccc(/N=[SH]/OOC)c23)s1 [Dye D-97] | Dark Blue-Violet | 29 | 34 | −43 | 85 | –
28 | COO/[SH]=N/c1cccc2c(O)ccc(/N=N/c3nc4ccccc4s3)c12 [Dye D-98] | Dark Blue | 27 | 23 | −37 | 80 | –
